Test results published in PubChem BioAssay AID1345085 (National Center for Advancing Translational Sciences (NCATS), 2018).
This list was built around the results that the source calls inconclusive (neither active nor inactive); the mix of calls is not that of the screen. A potency beside an inconclusive call is a rough fit, not a confirmed value. Activity calls are given as the source filed them. Calls come from the whole dose curve; as a rule, active = well fitted cell-killing curve with a large enough effect; inconclusive = small, poorly fitted or top-dose-only effect, or effect the other way; inactive = no such curve, though single readings can be large or run the other way.

System: SW626
Assay: Confirmatory qHTS for gynecologic anti-cancer compounds from libraries of approved drugs and bioactive compounds; note: nearly all actives have a fitted effect of over 55% in size
Details: gynecologic cancer cell panel viability, ATPlite luminescence, 48 h; series mostly up to 57.6 µM
Summary of the method: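 ATPlite luminescence read-out of cell viability; IC50 from 11-point 1:3 titrations, 57.5 uM to 0.977 nM, 48 h compound exposure at 37 C, 5% CO2. Cells seeded at 1,000/well 16 h before dosing.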
Potency is the fitted concentration of half-maximal effect.

| Compound | Potency |
| --- | --- |
| CO[C@@]12[C@H](COC(N)=O)C3=C(C(=O)C(C)=C(N)C3=O)N1C[C@@H]1N[C@@H]12 | inconclusive: 0.0054 µM [rising, full curve] |
| CCCCc1oc2ccc(NS(C)(=O)=O)cc2c1C(=O)c1ccc(OCCCN(CCCC)CCCC)cc1 | inconclusive: 43.2 µM [cytotoxic, single point] |
| Cn1cnc([N+](=O)[O-])c1Sc1ncnc2nc[nH]c12 | inconclusive: 19.3 µM [cytotoxic, partial curve] |
| CCc1c2c(nc3ccc(O)cc13)-c1cc3c(c(=O)n1C2)COC(=O)[C@]3(O)CC | inconclusive: 0.0968 µM [cytotoxic, full curve] |
| O=C(NOC[C@H](O)CO)c1ccc(F)c(F)c1Nc1ccc(I)cc1F | inconclusive: 0.0343 µM [cytotoxic, full curve, poor fit] |
| O=C(Nc1cccnc1)N1CCC(Cc2cccc(Oc3ccc(C(F)(F)F)cn3)c2)CC1 | inactive |
| Nc1nc(=S)c2[nH]cnc2[nH]1 | inconclusive: 6.85 µM [cytotoxic, partial curve] |
| COc1cc(N2CCC(N3CCN(C)CC3)CC2)ccc1Nc1ncnc(Nc2ccccc2S(=O)(=O)C(C)C)n1 | inconclusive: 4.32 µM [cytotoxic, full curve] |
| N=C(N)c1ccc(OCCCCCOc2ccc(C(=N)N)cc2)cc1 | inactive |
| Cc1ccc(NC(=O)c2ccc(CN3CCN(C)CC3)cc2)cc1Nc1nccc(-c2cccnc2)n1 | inconclusive: 30.6 µM [cytotoxic, partial curve, poor fit] |
| COc1cc2nccc(Oc3ccc(NC(=O)C4(C(=O)Nc5ccc(F)cc5)CC4)cc3)c2cc1OC | inconclusive: 17.2 µM [cytotoxic, partial curve] |
| CC(=O)Nc1cccc(-n2c(=O)n(C3CC3)c(=O)c3c(Nc4ccc(I)cc4F)n(C)c(=O)c(C)c32)c1 | inconclusive: 0.0544 µM [cytotoxic, full curve] |
| O=C(c1ccc(/C=C/c2n[nH]c3ccccc23)cc1)N1CCNCC1 | active: 15.3 µM |
| CN1CCN(Cc2ccc(NC(=O)Nc3ccc(Oc4cc(NC(=O)C5CC5)ncn4)cc3)cc2C(F)(F)F)CC1 | inconclusive: 7.69 µM [rising, partial curve] |
| O=C(Nc1cn[nH]c1-c1nc2ccc(CN3CCOCC3)cc2[nH]1)NC1CC1 | inactive |
| Cc1ccc(C(=O)Nc2cccc(C(F)(F)F)c2)cc1-c1ccc2nc(NCCN3CCOCC3)ncc2c1 | inconclusive: 0.769 µM [cytotoxic, full curve] |
| CN(C)C1CCN(C(=O)c2ccc(NC(=O)Nc3nc(N4CCOCC4)nc(N4CCOCC4)n3)cc2)CC1 | active: 0.685 µM |

| Compound | Potency |
| --- | --- |
| COc1ccc2cc3[n+](cc2c1OC)CCc1cc2c(cc1-3)OCO2 | inactive |
| CC[C@@]1(O)C(=O)OCc2c1cc1n(c2=O)Cc2cc3c(CN(C)C)c(O)ccc3nc2-1 | active: 0.863 µM |
| CN(Cc1cnc2nc(N)nc(N)c2n1)c1ccc(C(=O)N[C@@H](CCC(=O)O)C(=O)O)cc1 | inactive |
| NC1(c2ccc(-c3nc4ccn5c(=O)[nH]nc5c4cc3-c3ccccc3)cc2)CCC1 | inactive |
| COc1ccc(-c2cc3nccn3c(Nc3ncccc3C(N)=O)n2)cc1OC | inconclusive: 13.7 µM [cytotoxic, partial curve] |
| Cc1cc(C2CCCCC2)n(O)c(=O)c1 | active: 8.86 µM |
| COc1ccc(-c2ccc3c(N4CCOCC4C)nc(N4CCOCC4C)nc3n2)cc1CO (stereo not drawn) | inconclusive: 0.273 µM [cytotoxic, full curve] |
| OC[C@H]1O[C@@H](n2cnc3c(=S)nc[nH]c32)[C@H](O)[C@@H]1O | inconclusive: 4.32 µM [cytotoxic, full curve] |
| Cc1ccc(C(N)=O)cc1Nc1nccc(-c2cn(C(C)C)c3cnccc23)n1 | inactive |
| FC(F)(F)c1ccc(/C=C/c2nc(COc3ccc(CCCCn4ccnn4)cc3)co2)cc1 | inactive |
| O=C(O)C1(Cc2cccc(Nc3nccs3)n2)CCC(Oc2cccc(Cl)c2F)CC1 (stereo not drawn) | inactive |
| Nc1ccc(C(=O)Nc2cccc(-c3nc(N4CCOCC4)c4oc5ncccc5c4n3)c2)cn1 | inconclusive: 9.68 µM [cytotoxic, full curve] |
| CCN1CCN(Cc2ccc(Nc3ncc(F)c(-c4cc(F)c5nc(C)n(C(C)C)c5c4)n3)nc2)CC1 | inconclusive: 21.7 µM [cytotoxic, partial curve] |
| CCS(=O)(=O)c1cccc(-c2cc(C(=O)NC3CCN(C)CC3)c(C)c3[nH]c4ncc(C)cc4c23)c1 | inconclusive: 1.69 µM [cytotoxic, full curve] |
| CC(=O)OC12COC1CC(O)C1(C)C(=O)C(O)C3=C(C)C(OC(=O)C(O)C(NC(=O)OC(C)(C)C)c4ccccc4)CC(O)(C(OC(=O)c4ccccc4)C21)C3(C)C (stereo not drawn) | inactive |
| Cn1cc(-c2[nH]c3cc(NC(=O)[C@H](N)C4CCCCC4)cc4c3c2C=NNC4=O)cn1 | inconclusive: 0.611 µM [cytotoxic, full curve] |

Ordered by number of heavy atoms (falling): some entries from above.

| Compound | Potency |
| --- | --- |
| FC(F)(F)c1ccc(/C=C/c2nc(COc3ccc(CCCCn4ccnn4)cc3)co2)cc1 | inactive |
| Cn1cc(-c2[nH]c3cc(NC(=O)[C@H](N)C4CCCCC4)cc4c3c2C=NNC4=O)cn1 | inconclusive: 0.611 µM [cytotoxic, full curve] |
| Cc1cc(C2CCCCC2)n(O)c(=O)c1 | active: 8.86 µM |
